Assay results as given in the supplement of paper PMC11006884.
The entries are a selection whose mix differs from that of the whole data set.

Protein sequences, listed by entry. Tags and fused reporters are not part of them. Lines headed by an entry give the natural chain unless they say otherwise; changes in a name come on top.
UniProt Q5JTZ9, whole entry, looked up: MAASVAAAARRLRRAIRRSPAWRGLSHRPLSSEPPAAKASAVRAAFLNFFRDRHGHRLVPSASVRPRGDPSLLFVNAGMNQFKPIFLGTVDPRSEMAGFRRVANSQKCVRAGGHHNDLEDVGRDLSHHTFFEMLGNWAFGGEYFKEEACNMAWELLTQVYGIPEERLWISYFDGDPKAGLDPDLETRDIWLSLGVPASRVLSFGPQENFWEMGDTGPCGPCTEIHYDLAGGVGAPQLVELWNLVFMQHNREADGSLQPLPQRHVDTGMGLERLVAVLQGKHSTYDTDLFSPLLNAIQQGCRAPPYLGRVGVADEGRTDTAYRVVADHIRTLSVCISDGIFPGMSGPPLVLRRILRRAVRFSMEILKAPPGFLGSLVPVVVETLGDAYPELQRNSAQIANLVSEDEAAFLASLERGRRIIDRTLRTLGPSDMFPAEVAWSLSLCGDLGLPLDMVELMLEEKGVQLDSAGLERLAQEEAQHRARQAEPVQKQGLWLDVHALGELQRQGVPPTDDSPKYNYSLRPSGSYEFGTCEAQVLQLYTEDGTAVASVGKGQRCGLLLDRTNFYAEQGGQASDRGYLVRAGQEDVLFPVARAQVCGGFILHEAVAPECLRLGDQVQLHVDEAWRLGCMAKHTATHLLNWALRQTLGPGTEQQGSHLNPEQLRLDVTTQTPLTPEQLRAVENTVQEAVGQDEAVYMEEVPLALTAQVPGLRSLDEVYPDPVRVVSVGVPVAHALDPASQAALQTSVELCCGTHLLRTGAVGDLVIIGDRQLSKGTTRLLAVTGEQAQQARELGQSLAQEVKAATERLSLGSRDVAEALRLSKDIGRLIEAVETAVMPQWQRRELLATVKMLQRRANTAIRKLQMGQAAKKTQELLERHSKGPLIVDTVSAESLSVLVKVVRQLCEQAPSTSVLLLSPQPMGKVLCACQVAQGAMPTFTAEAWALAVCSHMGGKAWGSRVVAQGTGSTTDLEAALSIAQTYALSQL
UniProt Q66K74: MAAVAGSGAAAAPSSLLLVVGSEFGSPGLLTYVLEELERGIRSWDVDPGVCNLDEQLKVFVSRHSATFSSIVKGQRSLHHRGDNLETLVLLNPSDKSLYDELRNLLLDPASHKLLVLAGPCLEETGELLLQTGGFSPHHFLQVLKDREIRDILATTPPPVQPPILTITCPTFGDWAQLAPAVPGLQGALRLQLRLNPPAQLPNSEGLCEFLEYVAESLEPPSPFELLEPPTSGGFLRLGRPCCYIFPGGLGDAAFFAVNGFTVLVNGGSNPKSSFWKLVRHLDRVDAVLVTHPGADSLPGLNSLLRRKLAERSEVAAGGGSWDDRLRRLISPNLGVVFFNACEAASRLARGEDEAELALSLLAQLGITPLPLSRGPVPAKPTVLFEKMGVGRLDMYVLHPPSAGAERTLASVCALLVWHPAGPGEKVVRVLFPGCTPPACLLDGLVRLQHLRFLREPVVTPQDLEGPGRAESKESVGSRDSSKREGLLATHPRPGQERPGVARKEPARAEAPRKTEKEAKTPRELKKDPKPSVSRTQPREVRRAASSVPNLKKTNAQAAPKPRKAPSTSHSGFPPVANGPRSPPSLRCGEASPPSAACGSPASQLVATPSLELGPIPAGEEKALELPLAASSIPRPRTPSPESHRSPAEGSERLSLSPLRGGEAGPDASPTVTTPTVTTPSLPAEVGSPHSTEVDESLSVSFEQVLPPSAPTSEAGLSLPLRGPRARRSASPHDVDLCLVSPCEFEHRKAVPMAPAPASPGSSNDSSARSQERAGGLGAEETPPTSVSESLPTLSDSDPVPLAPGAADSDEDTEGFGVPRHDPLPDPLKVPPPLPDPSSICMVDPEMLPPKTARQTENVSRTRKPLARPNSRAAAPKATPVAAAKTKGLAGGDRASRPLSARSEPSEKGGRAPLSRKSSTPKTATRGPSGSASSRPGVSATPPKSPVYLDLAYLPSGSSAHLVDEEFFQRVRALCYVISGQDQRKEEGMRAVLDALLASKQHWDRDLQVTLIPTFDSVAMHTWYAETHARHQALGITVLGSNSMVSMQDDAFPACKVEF
UniProt Q6PCB5: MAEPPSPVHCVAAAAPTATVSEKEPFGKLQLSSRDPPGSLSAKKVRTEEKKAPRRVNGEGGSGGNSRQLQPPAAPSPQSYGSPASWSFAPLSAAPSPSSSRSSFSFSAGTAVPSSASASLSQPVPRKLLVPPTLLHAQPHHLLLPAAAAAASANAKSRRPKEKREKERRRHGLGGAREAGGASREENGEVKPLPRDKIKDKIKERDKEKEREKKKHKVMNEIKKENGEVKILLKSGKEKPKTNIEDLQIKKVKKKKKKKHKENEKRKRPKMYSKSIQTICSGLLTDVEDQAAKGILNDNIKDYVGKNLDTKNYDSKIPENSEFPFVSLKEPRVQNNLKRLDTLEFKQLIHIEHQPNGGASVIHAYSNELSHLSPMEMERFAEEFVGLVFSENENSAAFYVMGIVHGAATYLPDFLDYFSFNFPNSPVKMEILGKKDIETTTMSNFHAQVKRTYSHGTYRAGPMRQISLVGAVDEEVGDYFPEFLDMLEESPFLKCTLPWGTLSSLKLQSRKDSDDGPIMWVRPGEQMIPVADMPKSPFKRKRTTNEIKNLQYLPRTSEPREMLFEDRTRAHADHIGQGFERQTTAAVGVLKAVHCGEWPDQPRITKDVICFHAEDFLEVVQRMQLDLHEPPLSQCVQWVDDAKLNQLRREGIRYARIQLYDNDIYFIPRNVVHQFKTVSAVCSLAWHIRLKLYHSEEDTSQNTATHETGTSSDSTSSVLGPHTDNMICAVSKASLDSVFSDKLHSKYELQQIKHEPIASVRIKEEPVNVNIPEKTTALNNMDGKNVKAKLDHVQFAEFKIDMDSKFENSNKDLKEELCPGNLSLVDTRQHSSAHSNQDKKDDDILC
UniProt Q68E01, whole entry, looked up: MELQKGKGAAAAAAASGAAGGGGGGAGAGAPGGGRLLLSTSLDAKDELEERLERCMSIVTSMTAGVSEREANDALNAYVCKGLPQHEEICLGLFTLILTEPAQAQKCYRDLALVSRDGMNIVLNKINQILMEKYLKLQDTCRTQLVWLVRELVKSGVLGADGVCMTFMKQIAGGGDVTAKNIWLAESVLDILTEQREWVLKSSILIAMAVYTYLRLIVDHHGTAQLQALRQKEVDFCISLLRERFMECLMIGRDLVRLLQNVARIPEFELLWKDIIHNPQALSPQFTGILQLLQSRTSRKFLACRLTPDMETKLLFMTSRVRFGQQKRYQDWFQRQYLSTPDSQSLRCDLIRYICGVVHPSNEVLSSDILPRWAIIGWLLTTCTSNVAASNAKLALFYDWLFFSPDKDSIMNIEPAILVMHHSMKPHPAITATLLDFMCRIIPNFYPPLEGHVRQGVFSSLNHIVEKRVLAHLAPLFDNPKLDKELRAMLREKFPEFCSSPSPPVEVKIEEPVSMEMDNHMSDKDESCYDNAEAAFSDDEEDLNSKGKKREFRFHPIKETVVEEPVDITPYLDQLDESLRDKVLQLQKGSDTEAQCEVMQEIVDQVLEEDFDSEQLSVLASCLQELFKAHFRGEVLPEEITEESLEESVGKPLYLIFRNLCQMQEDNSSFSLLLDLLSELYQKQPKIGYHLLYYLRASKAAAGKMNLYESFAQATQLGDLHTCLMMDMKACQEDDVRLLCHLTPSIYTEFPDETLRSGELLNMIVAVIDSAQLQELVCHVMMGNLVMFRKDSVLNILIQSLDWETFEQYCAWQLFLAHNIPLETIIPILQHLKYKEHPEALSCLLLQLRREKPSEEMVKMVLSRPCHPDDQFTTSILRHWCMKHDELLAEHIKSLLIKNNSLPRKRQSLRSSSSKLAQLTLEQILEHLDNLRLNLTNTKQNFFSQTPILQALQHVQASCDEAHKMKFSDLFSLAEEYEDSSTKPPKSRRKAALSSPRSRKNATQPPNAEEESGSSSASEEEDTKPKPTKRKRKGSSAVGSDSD
UniProt Q5QJ74: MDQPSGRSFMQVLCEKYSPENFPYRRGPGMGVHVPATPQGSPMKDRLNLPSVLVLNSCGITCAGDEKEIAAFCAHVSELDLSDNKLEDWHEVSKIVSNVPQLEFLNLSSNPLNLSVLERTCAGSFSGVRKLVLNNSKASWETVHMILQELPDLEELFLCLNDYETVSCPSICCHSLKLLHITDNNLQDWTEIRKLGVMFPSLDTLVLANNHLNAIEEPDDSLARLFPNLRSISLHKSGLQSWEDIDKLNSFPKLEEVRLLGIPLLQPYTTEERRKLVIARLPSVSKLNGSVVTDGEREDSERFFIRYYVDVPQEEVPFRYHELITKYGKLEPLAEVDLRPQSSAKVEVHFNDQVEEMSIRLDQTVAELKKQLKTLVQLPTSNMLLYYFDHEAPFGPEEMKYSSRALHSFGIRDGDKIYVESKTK
UniProt Q5JSZ5: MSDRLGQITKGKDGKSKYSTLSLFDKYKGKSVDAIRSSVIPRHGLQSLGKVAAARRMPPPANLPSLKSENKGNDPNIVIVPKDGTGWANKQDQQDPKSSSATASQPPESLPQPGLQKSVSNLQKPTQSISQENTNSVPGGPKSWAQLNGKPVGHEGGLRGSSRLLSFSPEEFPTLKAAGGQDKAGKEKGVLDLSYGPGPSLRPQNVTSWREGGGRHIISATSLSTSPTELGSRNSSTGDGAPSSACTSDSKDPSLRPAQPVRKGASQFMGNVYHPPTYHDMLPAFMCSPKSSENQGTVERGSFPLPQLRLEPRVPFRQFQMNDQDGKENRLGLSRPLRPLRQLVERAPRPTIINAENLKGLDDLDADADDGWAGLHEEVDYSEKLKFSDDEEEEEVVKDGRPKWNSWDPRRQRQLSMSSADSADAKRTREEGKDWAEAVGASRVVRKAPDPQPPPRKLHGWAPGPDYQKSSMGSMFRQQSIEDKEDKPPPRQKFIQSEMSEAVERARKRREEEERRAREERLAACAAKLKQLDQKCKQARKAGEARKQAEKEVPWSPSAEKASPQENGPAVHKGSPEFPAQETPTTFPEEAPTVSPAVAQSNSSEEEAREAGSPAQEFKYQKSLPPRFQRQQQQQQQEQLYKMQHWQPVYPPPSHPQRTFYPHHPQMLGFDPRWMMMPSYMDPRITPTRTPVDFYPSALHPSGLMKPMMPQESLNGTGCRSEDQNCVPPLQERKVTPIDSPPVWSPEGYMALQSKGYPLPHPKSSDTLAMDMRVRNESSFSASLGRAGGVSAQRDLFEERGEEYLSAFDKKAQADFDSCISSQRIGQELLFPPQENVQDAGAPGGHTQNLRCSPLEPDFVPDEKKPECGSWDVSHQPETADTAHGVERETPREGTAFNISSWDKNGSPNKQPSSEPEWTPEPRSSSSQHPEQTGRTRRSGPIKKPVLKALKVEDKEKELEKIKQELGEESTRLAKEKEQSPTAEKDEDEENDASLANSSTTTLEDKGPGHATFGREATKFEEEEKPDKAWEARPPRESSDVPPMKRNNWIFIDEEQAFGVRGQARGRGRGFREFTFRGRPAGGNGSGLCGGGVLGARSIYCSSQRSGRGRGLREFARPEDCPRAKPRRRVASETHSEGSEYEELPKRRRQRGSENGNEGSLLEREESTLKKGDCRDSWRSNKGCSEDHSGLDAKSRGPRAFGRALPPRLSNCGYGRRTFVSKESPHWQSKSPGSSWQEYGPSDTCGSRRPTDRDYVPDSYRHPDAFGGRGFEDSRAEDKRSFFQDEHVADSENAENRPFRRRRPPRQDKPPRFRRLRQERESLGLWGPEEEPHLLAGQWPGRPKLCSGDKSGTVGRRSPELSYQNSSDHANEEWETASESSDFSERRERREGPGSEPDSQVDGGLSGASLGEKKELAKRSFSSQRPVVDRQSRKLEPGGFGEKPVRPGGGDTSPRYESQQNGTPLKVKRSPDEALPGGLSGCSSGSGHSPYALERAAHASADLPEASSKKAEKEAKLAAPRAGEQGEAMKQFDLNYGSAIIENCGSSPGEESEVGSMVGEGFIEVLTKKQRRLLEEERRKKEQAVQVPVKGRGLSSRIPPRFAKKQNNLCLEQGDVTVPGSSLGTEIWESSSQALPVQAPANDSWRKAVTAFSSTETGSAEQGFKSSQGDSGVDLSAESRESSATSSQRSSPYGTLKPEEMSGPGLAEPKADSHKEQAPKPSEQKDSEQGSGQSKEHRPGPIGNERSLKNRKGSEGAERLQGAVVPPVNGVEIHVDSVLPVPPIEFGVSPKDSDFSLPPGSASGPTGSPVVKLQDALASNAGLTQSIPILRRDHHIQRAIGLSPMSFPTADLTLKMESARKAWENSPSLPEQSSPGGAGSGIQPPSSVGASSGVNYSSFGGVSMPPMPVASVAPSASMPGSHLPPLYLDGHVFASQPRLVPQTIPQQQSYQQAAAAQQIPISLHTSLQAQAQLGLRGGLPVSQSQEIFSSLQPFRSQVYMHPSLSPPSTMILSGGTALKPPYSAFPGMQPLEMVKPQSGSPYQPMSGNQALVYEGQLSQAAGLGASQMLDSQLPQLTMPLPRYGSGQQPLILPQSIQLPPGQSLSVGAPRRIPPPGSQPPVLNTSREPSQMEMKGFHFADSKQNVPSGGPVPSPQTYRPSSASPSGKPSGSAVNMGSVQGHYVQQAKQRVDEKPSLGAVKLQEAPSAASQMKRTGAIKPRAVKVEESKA

Compound: COC(=O)C#Cc1ccccc1 [methyl 3-phenylpropiolate]
Assay: log2 ratio of iodoacetamide-alkyne labeling of the cysteine site, DMSO over compound (competition); higher = stronger covalent engagement of the cysteine by the compound, active = 1 or more
Conditions: 500 µM; treatment time 1 h; system: HEK293T cell lysate
Outline: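 HEK293T lysate (2 mg/mL) was incubated with electrophile (500 µM) or vehicle for 1 h at ambient temperature and then with iodoacetamide alkyne for 1 h. Labelled proteins were clicked to sCIP-TMT reagents, pooled, digested, enriched on streptavidin and measured by Orbitrap Eclipse LC-MS/MS with FAIMS, with FragPipe quantification. The per-cysteine log2 competition ratio is mean control-channel reporter intensity over mean compound-channel reporter intensity. Across three replicates with duplicate channels, cysteines quantified in only one replicate were excluded.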

| Target | log2 ratio of iodoacetamide-alkyne labeling |
| --- | --- |
| AARS2 C300 (UniProt Q5JTZ9) | inactive: 0.178 |
| MAP1S C440 (UniProt Q66K74) | inactive: -0.0398 |
| RSBN1L C10 (UniProt Q6PCB5) | inactive: 0.291 |
| TJAP1 C76 (UniProt Q5JTD0) | inactive: 0.625 |
| RIF1 C1187 (UniProt Q5UIP0) | inactive: 0.557 |
| UniProt Q5THK1_C92 | inactive: 0.559 |
| DENND4C C115 (UniProt Q5VZ89) | inactive: 0.0423 |
| INTS3 C866 (UniProt Q68E01) | inactive: 0.2 |
| UniProt Q6PJG6_C720 | inactive: 0.324 |
| TBCEL C121 (UniProt Q5QJ74) | inactive: 0.0663 |
| UniProt Q5JSZ5_C1482 | inactive: 0.275 |
| RICTOR C1012 (UniProt Q6R327) | inactive: 0.373 |
| TOR1AIP1 C424 (UniProt Q5JTV8) | inactive: 0.233 |
| RABL3 C180 (UniProt Q5HYI8) | inactive: 0.17 |
| FAM91A1 C141 (UniProt Q658Y4) | inactive: 0.479 |
| PAXIP1 C169 (UniProt Q6ZW49) | inactive: 0.19 |

Two records picked at random from those above:

| Target | log2 ratio of iodoacetamide-alkyne labeling |
| --- | --- |
| RSBN1L C10 (UniProt Q6PCB5) | inactive: 0.291 |
| RIF1 C1187 (UniProt Q5UIP0) | inactive: 0.557 |
